Tested on: IL‐4, STAT6‐Luc
Experiment: IL-4-induced JAK-STAT6-luciferase assay in U937 monocytes
Format: cell-based
Settings: Homo sapiens, U-937, interleukin at EC80

IC50: 100 nM
SMILES: C[C@@H]1CCN(C(=O)CC#N)C[C@@H]1N(C)c1ncnc2[nH]ccc12 [Tofacitinib, reference compound]

Source: paper PMC10233092, “Selective Janus kinase 1 inhibition resolves inflammation and restores hair growth offering a viable treatment option for alopecia areata” (Skin Health and Disease, 2023)
